These are yes or no findings as the source states them, for the method shown. In cells and extracts the contact can be indirect. Some binding calls cover weakened binding; strength is not graded here. For part of these data: Where a sequence is shown, tags or fusion partners need not be part of it.
Columns and labels:
[1] = target: SIRT1-ΔExon8 (Myc/His-tagged) (human) (UniProt Q96EB6); test: pull-down; affinity purification of the His-tag of Myc/His-SIRT1-ΔExon8 expressed in HCT116 cells; eluates probed by Western blot with anti-c-Myc and a C-terminal SIRT1 antibody (residues 448-747)
[2] = target: SIRT1-ΔExon8 (Myc/His-tagged) (human) (UniProt Q96EB6); test: co-IP; Myc-SIRT1-ΔExon8 expressed in HCT116 cells; lysates immunoprecipitated with anti-c-Myc (Pierce Mammalian c-Myc Tag IP/Co-IP kit); Western blot of eluates for endogenous partners
[3] = target: T1, Flag-tagged human AROS (Active Regulator Of SIRT1) (human) (UniProt Q86WX3); test: co-IP; Myc-SIRT1-ΔExon8 and Flag-AROS co-expressed in HCT116 cells; Flag epitope immunoprecipitated (Sigma FLAGIPT1), eluted with FLAG peptide; blot with anti-c-Myc
T1 sequence: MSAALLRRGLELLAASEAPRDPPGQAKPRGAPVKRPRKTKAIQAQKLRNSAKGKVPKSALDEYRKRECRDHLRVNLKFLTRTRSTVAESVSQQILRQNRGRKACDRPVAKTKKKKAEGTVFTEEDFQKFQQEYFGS

Amino acid sequences for entries named in this document (tags omitted). A change or cut given only in a name is not applied to a line headed by its entry. Chains listed by the source or under a name are the forms on record and can include a tag or linker.
UniProt Q96EB6: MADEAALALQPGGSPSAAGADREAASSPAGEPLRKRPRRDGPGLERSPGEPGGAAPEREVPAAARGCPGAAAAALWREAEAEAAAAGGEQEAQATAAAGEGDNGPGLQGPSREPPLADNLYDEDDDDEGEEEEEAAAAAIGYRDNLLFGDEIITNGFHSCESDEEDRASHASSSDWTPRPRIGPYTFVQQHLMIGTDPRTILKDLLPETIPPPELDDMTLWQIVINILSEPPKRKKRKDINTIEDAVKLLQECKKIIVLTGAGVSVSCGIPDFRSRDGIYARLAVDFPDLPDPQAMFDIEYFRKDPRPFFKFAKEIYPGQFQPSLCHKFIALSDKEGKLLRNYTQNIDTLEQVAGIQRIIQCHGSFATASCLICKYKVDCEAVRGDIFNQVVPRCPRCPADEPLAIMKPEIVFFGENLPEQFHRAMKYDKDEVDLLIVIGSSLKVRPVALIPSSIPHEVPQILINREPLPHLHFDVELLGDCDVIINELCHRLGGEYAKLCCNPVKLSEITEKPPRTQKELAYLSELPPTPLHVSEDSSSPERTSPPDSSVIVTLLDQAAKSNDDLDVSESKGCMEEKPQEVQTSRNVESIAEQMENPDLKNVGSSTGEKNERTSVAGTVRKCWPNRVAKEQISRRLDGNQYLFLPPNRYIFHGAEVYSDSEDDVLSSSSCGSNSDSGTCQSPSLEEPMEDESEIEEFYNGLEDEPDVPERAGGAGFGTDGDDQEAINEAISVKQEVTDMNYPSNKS
SIRT1-ΔExon8 (Myc/His-tagged) (Q96EB6-2, form named): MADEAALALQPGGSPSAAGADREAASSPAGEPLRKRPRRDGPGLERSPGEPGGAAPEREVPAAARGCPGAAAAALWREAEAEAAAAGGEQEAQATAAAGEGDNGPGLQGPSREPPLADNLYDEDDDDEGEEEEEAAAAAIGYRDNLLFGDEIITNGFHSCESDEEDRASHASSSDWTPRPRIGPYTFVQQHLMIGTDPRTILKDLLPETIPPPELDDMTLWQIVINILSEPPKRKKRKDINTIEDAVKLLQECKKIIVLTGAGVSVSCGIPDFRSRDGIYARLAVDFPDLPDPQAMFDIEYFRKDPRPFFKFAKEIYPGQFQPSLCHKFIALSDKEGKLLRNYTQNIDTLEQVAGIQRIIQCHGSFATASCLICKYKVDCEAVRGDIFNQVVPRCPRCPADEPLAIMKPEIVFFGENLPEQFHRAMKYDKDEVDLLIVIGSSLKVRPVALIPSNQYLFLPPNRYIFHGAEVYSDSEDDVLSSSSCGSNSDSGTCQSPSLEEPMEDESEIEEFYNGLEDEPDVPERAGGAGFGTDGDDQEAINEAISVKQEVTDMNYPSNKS

| Substance | binding [1] | binding [2] | binding [3] |
| --- | --- | --- | --- |
| SIRT1-Full-Length (endogenous) (from UniProt Q96EB6-1 1-747) | no binding | no binding |  |
| SIRT1-ΔExon8 (Myc/His-tagged) (from UniProt Q96EB6-2 1-561) |  |  | binds |

From article PMC2958826
